The list shows a part of the results.

Chains of the proteins cited; added tags and fusions are not shown.
UniProt Q0JBA9, entry or part of it: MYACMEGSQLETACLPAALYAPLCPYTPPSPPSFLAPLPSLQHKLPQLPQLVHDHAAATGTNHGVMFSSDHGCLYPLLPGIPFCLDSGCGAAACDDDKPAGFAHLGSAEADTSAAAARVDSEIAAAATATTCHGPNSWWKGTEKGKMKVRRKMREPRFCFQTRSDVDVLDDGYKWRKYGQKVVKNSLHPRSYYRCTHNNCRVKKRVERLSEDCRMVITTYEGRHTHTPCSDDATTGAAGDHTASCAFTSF

For this assay, the target named is OsWRKY34 (Oryza sativa, UniProt Q0JBA9 1-250). As to the kind of experiment: protein-binding microarray (RPBM); PBS, 2% BSA, 51.3 ng/ul salmon testes DNA, 50 uM zinc acetate, 200 nM TF, 25 C, 1 h; high values mean tight binding. Particulars: protein: recombinant; tags: N-terminal polyhistidine and DsRed monomer fusion (pET32a); label: CyDye5-dUTP incorporated in the synthesized complementary strand; 3' TTTTT single-stranded linker to array surface; dsDNA, one strand shown. A digest of the protocol: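 Transcription factors, each fused N-terminally to a polyhistidine tag and DsRed, were expressed in E. coli BL21-CodonPlus and purified on Ni–NTA. A custom Agilent array was made double-stranded by primer extension with Cy5-dUTP and blocked with 2% BSA. It was incubated with 200 nM protein in PBS, 2% BSA, salmon testes DNA and 50 µM zinc acetate at 25 °C for 1 h, then washed. The binding signal is per-feature fluorescence intensity (arbitrary units) read on an Axon 4000B scanner.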
For the sequence “TGGAGTACCTTCACTTGACATGTCTTACGGAACAAGTAATCGGAGTCACCTAGTGCAG”, the binding signal was 8430 fluorescence intensity (a.u.).

As to “CACCGCCTCACCTCACCGCCGGCGAGACCACCCACCGCCGCGGAGTCACCTAGTGCAG”, the binding signal is 8420 fluorescence intensity (a.u.).

In the case of “GTCCCTCGCGCCGTCACCACCTGCTCTGTCTCCTCTCCTTCGGAGTCACCTAGTGCAG”, the binding signal was 10700 fluorescence intensity (a.u.).

As for “AGTTACTAGTATCTCTTTTCCTTTTATTTTTCATTTTTCCCGGAGTCACCTAGTGCAG”, the binding signal was 9490 fluorescence intensity (a.u.).

Consider “GCTCCACGCTCAACTTAGATCGCCACCATTGACAGCGAACCGGAGTCACCTAGTGCAG”, for which the binding signal is 8160 fluorescence intensity (a.u.).

As to “AGTAGCACCACCACCTCGTCGGCCTGTCAAGGCTGATACACGGAGTCACCTAGTGCAG”, the binding signal was 10900 fluorescence intensity (a.u.).

On to “CACACACACACTCTCTCCGCACCAAAACCACTAAAACCAACGGAGTCACCTAGTGCAG”, for which the binding signal was 9730 fluorescence intensity (a.u.).

With “TGAATCCATTTTATCTTTTTTTTTCTTATTAAAATTTTTCCGGAGTCACCTAGTGCAG”, the binding signal was 8110 fluorescence intensity (a.u.).

Consider “TTAAAATTTCCCGGTGTCATGTTGCAGGTTCTTCAGTCCACGGAGTCACCTAGTGCAG”, for which the binding signal is 8950 fluorescence intensity (a.u.).

On to “GAGAGACAATTGACTGGACTTTTGTCGTGTTGACCACAGCCGGAGTCACCTAGTGCAG”, for which the binding signal is 9220 fluorescence intensity (a.u.).

For the sequence “GTGCATTGTATTGAGTGGCATTTTATCTTAACACAACCTACGGAGTCACCTAGTGCAG”, the binding signal is 9570 fluorescence intensity (a.u.).

For the sequence “GGGTTCATTAATTTTCTTTTTACCTCATAGGGGAAACAAACGGAGTCACCTAGTGCAG”, the binding signal was 8410 fluorescence intensity (a.u.).

With “TTTCTCTCCTTGCTCACCTGCGCCGCCGCACATCGCAACCCGGAGTCACCTAGTGCAG”, the binding signal was 11200 fluorescence intensity (a.u.).

For “CTATATATGAACAAATTCCTGGCCATCTCTTTCCATTCTCCGGAGTCACCTAGTGCAG”, the binding signal is 8470 fluorescence intensity (a.u.).

Turning to “GCACGTTGTAGTAGATATTTTCCTTTCTCTGCTTACATAACGGAGTCACCTAGTGCAG”, the binding signal was 9320 fluorescence intensity (a.u.).

As for “TTGTGTTATTCATGTCATAATGTATTCATGCTCTTGGATTCGGAGTCACCTAGTGCAG”, the binding signal was 9850 fluorescence intensity (a.u.).

For “GTTTGATTTTGTGCTGTTAATACCCTTTTTGCTTCAGGACCGGAGTCACCTAGTGCAG”, the binding signal was 10400 fluorescence intensity (a.u.).

For the sequence “CGGGGCGGCTGGCTTGACGCGTCATCTTCCCCGCGAAAATCGGAGTCACCTAGTGCAG”, the binding signal was 14000 fluorescence intensity (a.u.).

“CTTTCCTGTGTCGTTTCTAACTTTCCATGCCGAAGTTATACGGAGTCACCTAGTGCAG”: the binding signal is 12200 fluorescence intensity (a.u.).

Turning to “TCATCTCTAGCTGGAATCACATCTCTTAGCTTGTTTTATGCGGAGTCACCTAGTGCAG”, the binding signal was 8740 fluorescence intensity (a.u.).

Regarding “AGTTCCTTACCTTCGTCTCCCGAGATATTCACTTTCTTATCGGAGTCACCTAGTGCAG”, the binding signal was 9710 fluorescence intensity (a.u.).

As to “AACTGTTGCGTTTACATGGCCCCACATCGCTCCGCGTCATCGGAGTCACCTAGTGCAG”, the binding signal is 8610 fluorescence intensity (a.u.).

With “AGTGTACCATAACTACTTTCAGTTTATTTTGTTCTTTTTACGGAGTCACCTAGTGCAG”, the binding signal is 8790 fluorescence intensity (a.u.).

As to “GCTATCGATCATCAAGCTTTCTACCCCGACCGACGAGGAACGGAGTCACCTAGTGCAG”, the binding signal was 10800 fluorescence intensity (a.u.).

“TCCTTCTTGCGTAATCCTGCAGATTGATCCTGAAATTTATCGGAGTCACCTAGTGCAG”: the binding signal is 8440 fluorescence intensity (a.u.).

For the sequence “TTGTTGTTGTTGCTTATCATCTTGTTAACACAGTGCTGTTCGGAGTCACCTAGTGCAG”, the binding signal is 10900 fluorescence intensity (a.u.).

Consider “GCTTGCATCGTCTTGAAAAAAGTCTATTTTATATATTTTTCGGAGTCACCTAGTGCAG”, for which the binding signal is 8180 fluorescence intensity (a.u.).

Consider “ACCTACGCCAGCCACCACGACCATCCATCCTCTGCTGCACCGGAGTCACCTAGTGCAG”, for which the binding signal is 8390 fluorescence intensity (a.u.).

Turning to “TCAACATGTCCTTTATAGTGGTACAGTTTCTCGCTCATGTCGGAGTCACCTAGTGCAG”, the binding signal was 8570 fluorescence intensity (a.u.).

Consider “TTACCATGCCACTCTTGACTTCTCGTTTCATTTGCACTGTCGGAGTCACCTAGTGCAG”, for which the binding signal was 12700 fluorescence intensity (a.u.).

Regarding “TACTTTTCTTATCCTTTTGCCTGCCATCTGTGCATGGAATCGGAGTCACCTAGTGCAG”, the binding signal is 9160 fluorescence intensity (a.u.).

For the sequence “TCCTACCTATATTAGGCTCCCATTTGTGTTCCCATTTGCCCGGAGTCACCTAGTGCAG”, the binding signal was 9030 fluorescence intensity (a.u.).

Take “GCCTAGATGCTCGTTTTTTTTTTCTCTTTTGTTTGTCACGCGGAGTCACCTAGTGCAG”: the binding signal is 8750 fluorescence intensity (a.u.).

“CATTGCCAGCCTCGTCCCAATCCCACCACCTGCGCCACGCCGGAGTCACCTAGTGCAG”: the binding signal is 8760 fluorescence intensity (a.u.).

For the sequence “AATTTTTATTCACCCACCCTAGCACAAATCTTCAACATCTCGGAGTCACCTAGTGCAG”, the binding signal is 9570 fluorescence intensity (a.u.).

In the case of “ATCTCATTGTTTGTTACCAAATCCGGTTTACACCATTTTACGGAGTCACCTAGTGCAG”, the binding signal is 8180 fluorescence intensity (a.u.).

In the case of “CGTCATCTTCTTCCTTCAGCTCACGCTGACCAAACACCATCGGAGTCACCTAGTGCAG”, the binding signal is 8620 fluorescence intensity (a.u.).

“ATGTTTCAAGTTTATTTTTGCTGCTCAGATTTAGATGATACGGAGTCACCTAGTGCAG”: the binding signal is 8470 fluorescence intensity (a.u.).

On to “ACCAGCGTTGACTCGTCGTTTCCTACCGTGTCACTATATTCGGAGTCACCTAGTGCAG”, for which the binding signal was 15600 fluorescence intensity (a.u.).

Turning to “CTAGTCGAGTCCATGCCCATTCATCTCTTCACATTGCAAACGGAGTCACCTAGTGCAG”, the binding signal is 9660 fluorescence intensity (a.u.).

For “AAGCACATCGCCGTCCTCCACCCGCCCGTCGCATCCGCCTCGGAGTCACCTAGTGCAG”, the binding signal is 8080 fluorescence intensity (a.u.).

With “AGTTTCTTTATATCCCATGGCGTTTGCCTCGTTTGTCGTACGGAGTCACCTAGTGCAG”, the binding signal is 9900 fluorescence intensity (a.u.).
